PubChem BioAssay AID504784 – Drosophila RNAi Screening Center, 2011

- Screen: 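Fly genes whose silencing alters how much lipid cells keep in droplets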 (primary screen)
- System: Drosophila Kc167 embryonic cells
- Reagent: long dsRNA against Drosophila genes, about 250 ng dsRNA per well
- Time to read-out: 4 days
- Challenge: cells fed 400 µM oleic acid bound to BSA
- Read-out: 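Cells imaged and segmented; ratio of lipid droplet area to nuclear area, log-transformed, then normalised as a B-score over the screen; higher means more stored lipid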
- Direction: droplet/nuclear area B-score: higher = more stored lipid (overstorage)
The screen tested about 17,000 reagents; shown is a random part of those that have a named target and a result. 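Each column is one replicate's B-score; the combined score over replicates was not deposited, so single values may mislead.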 The numbers tell different reagents against one gene apart. Names joined by + are all predicted targets of the reagent.

Depletion of Prat gave: droplet/nuclear area B-score, replicate 1 = 1.97; droplet/nuclear area B-score, replicate 2 = -0.0753.
Knock-down of Urm1 came out at: droplet/nuclear area B-score, replicate 1 = 1.2; droplet/nuclear area B-score, replicate 2 = 0.0969.
AhcyL1 scored droplet/nuclear area B-score, replicate 1 = 0.0376; droplet/nuclear area B-score, replicate 2 = 0.046.
Depletion of lap resulted in: droplet/nuclear area B-score, replicate 1 = -0.0071; droplet/nuclear area B-score, replicate 2 = 0.00648.
With knock-down of trc, the screen gave droplet/nuclear area B-score, replicate 1 = 0.105; droplet/nuclear area B-score, replicate 2 = -1.35.
With knock-down of jb, the screen gave droplet/nuclear area B-score, replicate 1 = -0.934; droplet/nuclear area B-score, replicate 2 = -0.477.
RpL39 showed droplet/nuclear area B-score, replicate 1 = 2.89; droplet/nuclear area B-score, replicate 2 = 6.27.
Hex-t2 gave droplet/nuclear area B-score, replicate 1 = 0.922; droplet/nuclear area B-score, replicate 2 = -1.01.
Knock-down of alien + CG17906 gave: droplet/nuclear area B-score, replicate 1 = -0.558; droplet/nuclear area B-score, replicate 2 = 0.0301.
Knock-down of Lamtor3 gave: droplet/nuclear area B-score, replicate 1 = 0.266; droplet/nuclear area B-score, replicate 2 = 0.128.
With knock-down of Atf6 #1, the record shows droplet/nuclear area B-score, replicate 1 = -1.31; droplet/nuclear area B-score, replicate 2 = 0.303.
Depletion of Atf6 #2 resulted in: droplet/nuclear area B-score, replicate 1 = -1.05; droplet/nuclear area B-score, replicate 2 = 0.127.
After knock-down of CG6733 the results were droplet/nuclear area B-score, replicate 1 = -0.234; droplet/nuclear area B-score, replicate 2 = 0.45.
With knock-down of CG9014, the record shows droplet/nuclear area B-score, replicate 1 = -1.69; droplet/nuclear area B-score, replicate 2 = 0.317.
HUWE1 showed droplet/nuclear area B-score, replicate 1 = 1.72; droplet/nuclear area B-score, replicate 2 = 2.26.
Ugt36F1 scored droplet/nuclear area B-score, replicate 1 = 1.03; droplet/nuclear area B-score, replicate 2 = 0.481.

2 of these entries, reformatted.
gene	dsRNA no.	droplet/nuclear area B-score, replicate 1	droplet/nuclear area B-score, replicate 2
Urm1	1	1.2	0.0969
AhcyL1	1	0.0376	0.046
